Laboratory results reported in article PMC7981807.
Results are given in words; binding and its absence hold for the method and conditions named. In cells and extracts the contact can be indirect. Binding can be weak; no strength is given.

Molecular target: NCOR (nuclear receptor corepressor), endogenous (human (endogenous in REH and Nalm6))
Assay: proximity ligation; Duolink PLA on endogenous proteins, dots per nucleus, in REH cells, Nalm6 cells and BCP-ALL patients' cells; cut-off two S.D. over the negative control, Fisher's exact test

binding: binds
B1: CBFA2T3 (Core-Binding Factor Runt Domain Alpha Subunit 2 Translocated To 3), endogenous (protein, UniProt O75081 1-653)
chain: MPASRLRDRAASSASGSTCGSMSQTHPVLESGLLASAGCSAPRGPRKGGPAPVDRKAKASAMPDSPAEVKTQPRSTPPSMPPPPPAASQGATRPPSFTPHTHREDGPATLPHGRFHGCLKWSMVCLLMNGSSHSPTAINGAPCTPNGFSNGPATSSTASLSTQHLPPACGARQLSKLKRFLTTLQQFGSDISPEIGERVRTLVLGLVNSTLTIEEFHSKLQEATNFPLRPFVIPFLKANLPLLQRELLHCARLAKQTPAQYLAQHEQLLLDASASSPIDSSELLLEVNENGKRRTPDRTKENGSDRDPLHPEHLSKRPCTLNPAQRYSPSNGPPQPTPPPHYRLEDIAMAHHFRDAYRHPDPRELRERHRPLVVPGSRQEEVIDHKLTEREWAEEWKHLNNLLNCIMDMVEKTRRSLTVLRRCQEADREELNHWARRYSDAEDTKKGPAPAAARPRSSSAGPEGPQLDVPREFLPRTLTGYVPEDIWRKAEEAVNEVKRQAMSELQKAVSDAERKAHELITTERAKMERALAEAKRQASEDALTVINQQEDSSESCWNCGRKASETCSGCNAARYCGSFCQHRDWEKHHHVCGQSLQGPTAVVADPVPGPPEAAHSLGPSLPVGAASPSEAGSAGPSRPGSPSPPGPLDTVPR
